PubChem BioAssay AID1671195 | Yale University – 2021

Purpose: 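Genes whose knockdown alters LDL uptake in liver cancer cells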 (primary screen)
System: human Huh7 hepatoma cells
Reagents: siRNA pool against human genes, 18 nM
Timing: about 2 to 2.5 days of knockdown, then 8 h LDL uptake
Challenge: DiI-labelled LDL at 30 µg/ml for 8 h, in lipoprotein-deficient serum medium
Read-out: 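Per-cell DiI-LDL intensity by automated imaging; well means scaled to the plate median and given as a robust z-score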
Scale: robust z-score: higher = more LDL uptake after knockdown
Active means: 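a gene counts as active if at least two replicate z-scores exceed ±2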
Shown is one part, drawn at random, of about 22,000 deposited reagents. About 1,510 of them (6.9%) were called active. 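Active includes knockdowns raising or lowering LDL uptake; positive z-scores mean more uptake, negative mean less.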 Entries without a mark were called inactive. The numbers tell different reagents against one gene apart. No sequences are given here.

target	reagent	robust z-score, replicate 1	robust z-score, replicate 2	robust z-score, replicate 3
QKI (GeneID 9444)	1	0.17	0.665	0.413
SLC20A1-DT (GeneID 400999)	1	-0.518	-0.521	-0.897
N4BP3 (GeneID 23138)	1	-0.992	-1.1	-0.448
TMEM218 (GeneID 219854)	1	-0.805	-0.828	-0.731
RAB5IF (GeneID 55969)	1	-0.041	0.946	-0.644
LOC391265 (retired record) (GeneID 391265)	1	2.18 (active)	1.94	1.94
NIPSNAP3A (GeneID 25934)	1	-0.445	0.661	-0.821
NELFE (GeneID 7936)	1	0.0549	0.74	0.0105
NEDD4 (GeneID 4734)	1	0.0712	-0.133	0.807
LOC401860 (retired record) (GeneID 401860)	1	0.628 (active)	1.94	2.42
MAD2L1BP (GeneID 9587)	1	1.85	0.805	-0.485
PSMC2 (GeneID 5701)	1	-0.142	-0.333	-0.77
LOC441106 (retired record) (GeneID 441106)	1	-0.336	-0.122	-0.494
DPYSL5 (GeneID 56896)	1	-0.00151	-0.74	-0.0878
SPESP1 (GeneID 246777)	1	-0.138	-0.321	-0.381
SLC12A7 (GeneID 10723)	1	-1.91	-1.81	-1.7
SLC9A3 (GeneID 6550)	1	-0.0378	-0.373	0.245
CRLF1 (GeneID 9244)	1	0.74	0.0503	-0.414
LOC441833 (retired record) (GeneID 441833)	1	-0.649	-0.675	-0.793

In a second layout: results already given
| target | reagent | robust z-score, replicate 1 | robust z-score, replicate 2 | robust z-score, replicate 3 |
| --- | --- | --- | --- | --- |
| NIPSNAP3A (GeneID 25934) | 1 | -0.445 | 0.661 | -0.821 |
| NELFE (GeneID 7936) | 1 | 0.0549 | 0.74 | 0.0105 |
| NEDD4 (GeneID 4734) | 1 | 0.0712 | -0.133 | 0.807 |
| LOC401860 (retired record) (GeneID 401860) | 1 | 0.628 (active) | 1.94 | 2.42 |
| MAD2L1BP (GeneID 9587) | 1 | 1.85 | 0.805 | -0.485 |

Further records follow.
target	reagent	robust z-score, replicate 1	robust z-score, replicate 2	robust z-score, replicate 3
CCHCR1 (GeneID 54535)	1	-0.352	-1.22	-0.731
CLSTN3 (GeneID 9746)	1	-0.787	-0.0115	-1.08
AHSA1 (GeneID 10598)	1	0.672	0.0936	0.0451
REXO2 (GeneID 25996)	1	0.711	0.369	0.734
SELENOI (GeneID 85465)	1	0.951	1.41	1.25
LOC441560 (retired record) (GeneID 441560)	1	1.54	-0.369	-0.325
NR3C2 (GeneID 4306)	1	-0.305	0.0732	-0.163
NOS3 (GeneID 4846)	1	1.94 (active)	2.17	1.6
MAGEA8 (GeneID 4107)	1	0.733	1.86	1.18
PACC1 (GeneID 55248)	1	0.223	-0.221	-1.23
CSF2 (GeneID 1437)	1	0.808	2.17	0.971
MPP4 (GeneID 58538)	1	-0.373	-0.758	-0.848
ITGAL (GeneID 3683)	1	-0.468	-1.11	-1.42
CDS2 (GeneID 8760)	1	-1.1	0.753	-0.844
OCA2 (GeneID 4948)	1	0.663	0.263	0.646
NDUFB7 (GeneID 4713)	1	1.28	0.134	0.829
PIEZO2 (GeneID 63895)	1	1.49	1.85	1.74
PIEZO2 (GeneID 63895)	2	-0.543	-1.07	-1.03
RAI14 (GeneID 26064)	1	2.45 (active)	2.47	4.7
TSPAN18 (GeneID 90139)	1	-1.46	-1.69	-0.582
LIMD2 (GeneID 80774)	1	-0.219	0.0588	-0.448
RSPH10B (GeneID 222967)	1	-1.41	-1.15	-0.856
ADPRH (GeneID 141)	1	-1.35	-1.54	-0.819
NIP7 (GeneID 51388)	1	-0.25	1.65	1.2
KCNRG (GeneID 283518)	1	0.224	-0.0961	0.147
CUL1 (GeneID 8454)	1	-0.675	2.07	0.621
DUBR (GeneID 344595)	1	0.55	0.841	1.98
